From patent US9908919B2 (priority 2013, dated 2018)

Assay: general procedure: Fmoc solid-phase peptide synthesis; 2-chlorotrityl chloride-PS-resin (C-terminal acids); Phenethylamine-AMEBA-PS-resin (N-phenethyl carboxamides)
Settings: whole synthesis, scale 0.10 mmol

With pE-R-C*-R-L-C*-H-K-G-P-Nle-P-F-OH as the substance, how does the isolated mass read?
Its isolated mass is 36.8 mg.
